Test results from PubChem BioAssay AID1508600 (Functional Genomics Laboratory (NCATS/FGL), 2020).
Among all 53,000 sequences or so, about 3,700 (7%) were called active.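 The calls were made as follows: active = gene knockdowns whose robust z-score for IL-1 alpha signal is at least 2 or at most -2, so actives lie on both sides; inactive = the rest.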 The list shows a part of the results.

Test: Components of the Cytosolic LPS Sensing Pathway: Gene Identification via Genome-wide siRNA Screen;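 also: robust z of the log signal after scaling to non-targeting control siRNA wells of the plate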
Details: RAW264.7 macrophages, IL-1a HTRF, actives lie on both sides, screened at 100 nM (by protocol), cells primed 5 h with Pam3CSK4 first
Summary of the method: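 RAW264.7; siRNA 100 nM final, RNAiMAX, 48h 37 degrees C; Pam3CSK4 5 h; LipidA + TransIT-TKO 24 h; IL-1a HTRF; CellTiter-Glo viability; robust z vs negative-control median.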
With “GGCAAACAGGUUGAUCGUGTT against 1700123K08Rik” the z-score was inactive: -1.39. In the case of GGCCGGAGAAAUCAUUGAGTT against Nme7, the z-score is reported as inactive: -0.452. In the case of GCUAUGUUAGGAGAAAUGCTT against Copb1, the z-score is reported as inactive: -0.11. For CCGAAAUUCUGACUGAGAATT against Tm2d2, the z-score was inactive: -1.29. For GGACAAGCAUGUUUUCUGCTT against Vmn1r40, the z-score was inactive: 0.16. In the case of GCACAAAUUUGGUAGUGUUTT against Nup50, the z-score is reported as inactive: -1.53. For CCUGGCUAUUAGAUCGCGUTT against Kif12, the z-score was inactive: 1.19. With GGAGCUCAAAACCUCCAAGTT against Osr1 the z-score was inactive: -0.42. In the case of GCUGUUGGAUCCUUUCCUATT against Slc25a26, the z-score is reported as inactive: -1.51. For GGAAUUUGUGGAAACAGGATT against Tnfaip3, the z-score was inactive: -0.441. In the case of CCAGCUUACCUUUGAAAAATT against Dusp12, the z-score is reported as inactive: 1.29. For GGUUUACCCAAAGAACUCGTT against Snap29, the z-score was inactive: 0.157. In the case of CCACCUUGUUGAGUGGCACTT against Smarcd3, the z-score is reported as inactive: -0.177. In the case of GCUGGAUUCUGGUAAAUGGTT against Eif5a, the z-score is reported as inactive: -0.836. In the case of CCUGGUACUGAUUACUCCATT against Adam20, the z-score is reported as inactive: 0.447. With CGAAAAAAAUCCAAGUCAATT against Akap12 the z-score was inactive: -0.28. In the case of GGUAAUUAAAACCAUGGAGTT against Rex1bd, the z-score is reported as inactive: -0.0412. In the case of CCUUUCGAUGAUAAUCGAATT against Olfr971, the z-score is reported as inactive: 1.1. In the case of GGCUAUGACUCGAUUUCUATT against Msh5, the z-score is reported as inactive: 0.875. For GGACGUAUACAUUCAAUCUTT against Ubash3a, the z-score was inactive: 0.2. In the case of GGAGGCUGAAAACAUCGUGTT against Sncg, the z-score is reported as inactive: -0.49. In the case of GGAUCUGGAGCAGCUUCAGTT against Veph1, the z-score is reported as inactive: -0.188. With GGGAUUUCGCCAUUGGUGUTT against Col15a1 the z-score was inactive: -0.312. In the case of GGAGAAAGUCAAGACCCUCTT against Jund, the z-score is reported as inactive: 0.473. In the case of “CCGCAUAAGAGAAUCAAGGTT against 1700012B09Rik”, the z-score is reported as inactive: -0.0578. In the case of CGCGGAAGUUUGAAGUCCUTT against Tusc1, the z-score is reported as inactive: -0.427. With CGUGCCAGACCUAUAGCUUTT against Mlxip the z-score was inactive: -0.226. In the case of GGCAGAUCUGGAGAACCAGTT against Rras, the z-score is reported as inactive: -1.6. With GUACUUUCUUAUUCUCCAATT against Tas2r123 the z-score was inactive: -0.497. In the case of GCUAGCCAAUUGUGUUUGATT against Gjb3, the z-score is reported as inactive: 1.12. With GGUCUCAAAGAAAUCUGUATT against Bcap29 the z-score was active: -2.4. For UCUUUGGGUAGUUUAGGUATT against Olfr1310, the z-score was inactive: 0.0559. In the case of GGUUACGAAGAUUAAUGUGTT against Crk, the z-score is reported as inactive: 1.27. With GGCCUAUCCAUAAUUUAUCTT against Mcm8 the z-score was inactive: 0.828. For GGCAUGAAUGAGUUUAUCATT against Vps8, the z-score was inactive: -1.12. For GGAUGGAGAAGUUUACUACTT against Yap1, the z-score was inactive: 0.714. In the case of GGAUGUCACAACAGUUAUGTT against Otog, the z-score is reported as inactive: -0.571. In the case of GCUAUUCAAUAUUUAUGGCTT against Zic1, the z-score is reported as inactive: -0.176. In the case of CGGUGAUAGUGGAGUUUGUTT against Olfr266, the z-score is reported as inactive: 0.542. With CCUGUAUACUAUCACUUGUTT against Casp8 the z-score was inactive: 0.103. For GGUCUUCAAGAACUGUAGCTT against Bcl11b, the z-score was inactive: 1.09. For GCCUCCAGAACUCACUGCATT against Hes3, the z-score was active: -2.04. With GCUUGCCUGCAUGGAUACATT against Olfr1205 the z-score was inactive: -1.27. In the case of GCUCACUUAUCUACGUUUUTT against Trim15, the z-score is reported as inactive: 0.639. With GGAUCGUUUUAAUAGUCUGTT against Dscc1 the z-score was inactive: 0.396. In the case of CCUGAUGCCAGUUAACAGUTT against Rcan1, the z-score is reported as inactive: 0.516. With GGCCCAUAUUUGACUAUAATT against Tlr4 the z-score was inactive: -0.559. With GGGAGGUUCACAUCCUAAATT against Tgfbr3 the z-score was inactive: -1.01. For GGGCACCAAGAAAAGUCUCTT against Mageh1, the z-score was inactive: -0.166. For CCGGUUAGCUCAGUAUGACTT against Mief1, the z-score was inactive: -0.536. With CCUGUGCUUUUGUGCAUUATT against Clta the z-score was inactive: 0.000931. With CGGUCACUUUCAACAUCAATT against C1qbp the z-score was inactive: 0.504. With GCCCAAACGUGCAGUAAGUTT against Zfp623 the z-score was inactive: -0.749. With CCACAUUAAAUACGCAACATT against Nos3 the z-score was inactive: -1.26. With GGCAUAAAACAGAUUCCUUTT against Tac1 the z-score was inactive: -0.477. With GGAUCUGGAAAAAGCAACUTT against Mzt2 the z-score was inactive: -0.224. In the case of CGGCCUUCUCUACAAAUCATT against Rbfa, the z-score is reported as inactive: 0.816. In the case of GGCAAAGAAUUCAAUCGGATT against Atp2b2, the z-score is reported as inactive: -0.235. With GGGCUUGUCCAUGAUGAACTT against Rb1cc1 the z-score was inactive: 0.27. For UCUCAUUGCAAUUCUGGGATT against Olfr675, the z-score was inactive: 0.566. For GGAAAGACCUAAGCAAUUATT against Klhl28, the z-score was inactive: -0.287. For CGUUAGUACAAUAUACAAGTT against St18, the z-score was inactive: 1.53. For CCAAACGAGAGAAAUUCAATT against Rin1, the z-score was inactive: 1.8. In the case of “GCUAUUGCCUUACUUUAAGTT against Vmn2r-ps11”, the z-score is reported as inactive: 0.409. With GGACUGUGAGGCCUAUGAATT against Cd72 the z-score was inactive: -0.1. For CCGACUCGUCUUUACAACUTT against Abcc6, the z-score was inactive: -0.935. With GGCUAUUAAACAGAAACUGTT against Ric8a the z-score was inactive: -0.934. In the case of UACAUUACUUCAACUGGAATT against Vmn2r43, the z-score is reported as inactive: 0.285.
